Results of single-concentration screens

Sequences of proteins named here, by UniProt entry; tags and fusion partners are left off. Residues count along the entry.
UniProt I6X8D2, whole entry: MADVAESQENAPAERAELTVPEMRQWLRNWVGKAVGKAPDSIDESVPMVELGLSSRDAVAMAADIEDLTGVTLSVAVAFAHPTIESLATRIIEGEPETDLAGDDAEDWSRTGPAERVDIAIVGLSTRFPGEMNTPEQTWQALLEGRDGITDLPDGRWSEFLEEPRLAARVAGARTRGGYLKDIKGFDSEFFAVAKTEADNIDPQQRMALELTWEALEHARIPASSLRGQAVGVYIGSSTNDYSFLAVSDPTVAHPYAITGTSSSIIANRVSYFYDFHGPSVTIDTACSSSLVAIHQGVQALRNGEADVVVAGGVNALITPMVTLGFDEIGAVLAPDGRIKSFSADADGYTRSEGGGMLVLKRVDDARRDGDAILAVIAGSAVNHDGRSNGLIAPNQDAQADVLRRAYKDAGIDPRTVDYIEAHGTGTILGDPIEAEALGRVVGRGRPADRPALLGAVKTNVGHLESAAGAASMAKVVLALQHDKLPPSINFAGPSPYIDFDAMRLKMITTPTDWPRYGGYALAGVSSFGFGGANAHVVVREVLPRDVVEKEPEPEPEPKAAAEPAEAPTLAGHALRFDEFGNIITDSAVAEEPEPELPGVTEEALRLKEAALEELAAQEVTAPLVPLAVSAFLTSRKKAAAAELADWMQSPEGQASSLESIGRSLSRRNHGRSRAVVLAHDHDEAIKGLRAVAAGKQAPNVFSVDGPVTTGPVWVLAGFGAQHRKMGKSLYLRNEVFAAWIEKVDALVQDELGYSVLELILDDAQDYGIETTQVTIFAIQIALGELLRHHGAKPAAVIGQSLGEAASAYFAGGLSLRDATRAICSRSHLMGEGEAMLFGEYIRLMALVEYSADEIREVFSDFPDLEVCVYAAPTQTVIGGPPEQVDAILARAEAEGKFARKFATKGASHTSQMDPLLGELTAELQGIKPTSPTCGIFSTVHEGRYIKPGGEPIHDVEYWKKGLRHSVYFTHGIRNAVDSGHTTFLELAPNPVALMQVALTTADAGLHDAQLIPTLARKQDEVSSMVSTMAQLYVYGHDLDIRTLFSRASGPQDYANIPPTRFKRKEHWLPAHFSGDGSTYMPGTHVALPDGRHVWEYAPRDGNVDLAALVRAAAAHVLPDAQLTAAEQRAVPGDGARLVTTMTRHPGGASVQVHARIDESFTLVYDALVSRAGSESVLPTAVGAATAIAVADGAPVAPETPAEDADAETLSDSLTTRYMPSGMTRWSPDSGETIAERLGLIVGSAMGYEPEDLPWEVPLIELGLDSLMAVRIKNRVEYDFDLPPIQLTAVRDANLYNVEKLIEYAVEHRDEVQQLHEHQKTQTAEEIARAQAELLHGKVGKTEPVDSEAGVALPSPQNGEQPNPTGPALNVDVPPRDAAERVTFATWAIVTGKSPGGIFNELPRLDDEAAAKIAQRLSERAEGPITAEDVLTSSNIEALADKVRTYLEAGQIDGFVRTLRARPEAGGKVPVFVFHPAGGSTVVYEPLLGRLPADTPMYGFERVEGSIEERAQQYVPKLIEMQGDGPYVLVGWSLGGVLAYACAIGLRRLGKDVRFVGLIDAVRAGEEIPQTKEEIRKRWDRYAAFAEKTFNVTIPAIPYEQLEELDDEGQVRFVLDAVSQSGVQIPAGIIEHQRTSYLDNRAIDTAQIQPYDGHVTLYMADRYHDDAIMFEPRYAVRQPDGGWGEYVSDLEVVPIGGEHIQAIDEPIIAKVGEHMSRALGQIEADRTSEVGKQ
UniProt P9WNZ1, whole entry: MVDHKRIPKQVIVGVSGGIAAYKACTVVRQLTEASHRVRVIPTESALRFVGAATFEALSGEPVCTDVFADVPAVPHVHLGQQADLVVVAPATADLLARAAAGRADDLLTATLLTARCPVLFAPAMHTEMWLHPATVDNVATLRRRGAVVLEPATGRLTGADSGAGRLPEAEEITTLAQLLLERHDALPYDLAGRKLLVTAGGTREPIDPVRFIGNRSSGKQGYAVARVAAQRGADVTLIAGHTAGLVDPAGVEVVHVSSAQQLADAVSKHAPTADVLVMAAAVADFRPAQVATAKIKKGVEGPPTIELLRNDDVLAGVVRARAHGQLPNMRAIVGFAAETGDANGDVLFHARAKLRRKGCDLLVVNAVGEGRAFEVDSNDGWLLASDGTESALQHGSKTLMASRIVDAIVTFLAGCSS
UniProt P9WFT3, whole entry: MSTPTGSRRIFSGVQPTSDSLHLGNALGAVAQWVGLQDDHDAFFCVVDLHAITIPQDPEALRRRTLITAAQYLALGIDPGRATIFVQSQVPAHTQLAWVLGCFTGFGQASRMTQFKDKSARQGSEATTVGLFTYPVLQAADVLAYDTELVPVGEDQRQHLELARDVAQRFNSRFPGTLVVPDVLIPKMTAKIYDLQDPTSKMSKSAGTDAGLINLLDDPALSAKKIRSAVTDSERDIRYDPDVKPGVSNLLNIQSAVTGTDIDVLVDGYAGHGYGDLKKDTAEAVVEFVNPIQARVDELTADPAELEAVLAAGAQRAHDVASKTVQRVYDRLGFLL
UniProt A4I591, 1-473: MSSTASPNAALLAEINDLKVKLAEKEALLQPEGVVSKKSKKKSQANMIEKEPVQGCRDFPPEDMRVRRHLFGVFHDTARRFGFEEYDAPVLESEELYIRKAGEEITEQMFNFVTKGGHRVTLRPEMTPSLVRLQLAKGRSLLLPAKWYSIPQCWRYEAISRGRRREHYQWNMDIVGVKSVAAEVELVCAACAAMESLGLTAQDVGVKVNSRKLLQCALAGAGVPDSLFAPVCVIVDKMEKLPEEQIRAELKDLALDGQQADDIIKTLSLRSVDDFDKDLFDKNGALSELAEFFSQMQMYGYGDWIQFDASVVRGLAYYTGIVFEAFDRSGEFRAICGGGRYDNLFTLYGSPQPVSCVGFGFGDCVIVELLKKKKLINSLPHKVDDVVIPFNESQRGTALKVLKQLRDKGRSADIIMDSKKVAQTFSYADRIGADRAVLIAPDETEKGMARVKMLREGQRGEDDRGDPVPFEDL
UniProt Q4DA54, 1-478: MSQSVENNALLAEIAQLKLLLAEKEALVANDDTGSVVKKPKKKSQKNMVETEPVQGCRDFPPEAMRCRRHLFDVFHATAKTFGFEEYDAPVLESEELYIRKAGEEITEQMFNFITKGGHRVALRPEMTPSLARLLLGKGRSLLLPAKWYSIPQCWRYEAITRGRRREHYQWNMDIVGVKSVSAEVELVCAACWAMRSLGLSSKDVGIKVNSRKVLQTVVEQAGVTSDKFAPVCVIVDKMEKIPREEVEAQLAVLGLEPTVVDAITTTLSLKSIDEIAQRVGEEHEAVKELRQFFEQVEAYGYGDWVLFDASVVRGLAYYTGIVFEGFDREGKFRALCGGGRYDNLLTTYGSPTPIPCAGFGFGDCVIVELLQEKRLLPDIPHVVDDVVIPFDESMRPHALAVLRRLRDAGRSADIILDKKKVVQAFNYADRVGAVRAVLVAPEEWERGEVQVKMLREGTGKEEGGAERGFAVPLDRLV

Measurements from “University of Dundee, Small-Polar-MMV Screening Library” (2021), ChEMBL document CHEMBL3988442.

Pks13 thioesterase: 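Enzyme assay of the thioesterase domain of polyketide synthase 13; the read-out is not stated. Target: Polyketide synthase Pks13, Mycobacterium tuberculosis (UniProt I6X8D2). Tested at 30 µM. Higher reads as stronger inhibition (inferred from which compounds were picked for retests). Of about 67,000 compounds tested this way, about 300 (0.46%) reached 50% or more in at least one test.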
Toxoplasma: 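Assay of Toxoplasma gondii numbers, read through their beta-galactosidase reporter with a colour substrate. Compounds at 10 µM. The record gives no direction; the compounds picked for IC50 retests had high values, so higher reads as fewer parasites. About 67,000 compounds were tested under these conditions; 0.38% (about 260) showed 50% or more at least once.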
CoaBC: 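Coenzyme A biosynthesis protein CoaBC, Mycobacterium tuberculosis (UniProt P9WNZ1). Enzyme assay of CoaBC with a phosphate dye (Biomol Green) read at 650 nm. Compounds at 30 µM. Higher reads as stronger inhibition, judged from the few compounds that gave an IC50. Most strong results did not repeat in a second test. Of about 67,000 compounds tested this way, about 40 (0.06%) reached 50% or more in at least one test.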
MtTrpRS: 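Enzyme assay of tryptophanyl-tRNA synthetase; the read-out is not stated. Target: Tryptophan-tRNA ligase, Mycobacterium tuberculosis (UniProt P9WFT3). Compounds at 10 µM. Direction is not recorded; retested compounds ran higher, which suggests that high means inhibition. Of about 65,000 compounds tested this way, about 64 (0.098%) reached 50% or more in at least one test.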
LiHisRS: 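Enzyme assay of histidyl-tRNA synthetase; the read-out is not stated. Target: Histidine-tRNA ligase, Leishmania infantum (UniProt A4I591). Tested at 30 µM. Higher reads as stronger inhibition (inferred: compounds with an IC50 in retests scored well above the rest). The assay is labelled LdHisRS but filed under L. infantum. Of about 69,000 compounds tested this way, about 410 (0.6%) reached 50% or more in at least one test.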
TcHisRS: 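Histidine-tRNA ligase, Trypanosoma cruzi CL Brener (UniProt Q4DA54). Enzyme assay of histidyl-tRNA synthetase; the read-out is not stated. Tested at 30 µM. The record gives no direction; compounds that gave an IC50 in retests scored well above the rest, so higher reads as stronger inhibition. Size under these conditions: about 69,000 compounds, about 31 of them at 50% or above in at least one test.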

The filed quantity is “Percent Effect” (%).
How 0% and 100% were set is not recorded. Most values in the screen are low, and negative values occur.
This is an unselected part of the compounds tested.

{"compound": "CN(C)S(=O)(=O)NCc1nn(CCN2CCCC2)c(=O)c2ccccc12", "Pks13 thioesterase": -7.588, "Toxoplasma": 4.103, "CoaBC": 0.4843, "MtTrpRS": 4.87, "LiHisRS": 26.09, "TcHisRS": 19}
{"compound": "O=C(NCC(=O)N1CCCc2ccccc21)c1c(O)cc(F)cc1F", "Pks13 thioesterase": -6.764, "Toxoplasma": -9.878, "CoaBC": 4.439, "MtTrpRS": -9.655, "LiHisRS": 2.655, "TcHisRS": 0.2915}
{"compound": "N[C@@H](Cc1c[nH]cn1)C(=O)N1CCC(Oc2ccc(F)cc2)CC1", "Pks13 thioesterase": -11.12, "Toxoplasma": 0.6664, "CoaBC": -11.4, "MtTrpRS": 2.056, "LiHisRS": 24.49, "TcHisRS": 16}
{"compound": "Cc1cc(CNc2cccc(C(=O)N(C)c3ccccc3)c2)no1", "Pks13 thioesterase": -6.111, "Toxoplasma": -9.718, "CoaBC": -2.521, "MtTrpRS": -3.087, "LiHisRS": 5.983, "TcHisRS": 11.11}
{"compound": "COc1ccccc1CC(=O)N1CCC(NCc2c[nH]nc2C)CC1", "Pks13 thioesterase": -7.66, "Toxoplasma": -2.908, "CoaBC": -1.686, "MtTrpRS": -1.846, "LiHisRS": 21.54, "TcHisRS": 4.981}
{"compound": "Cc1nc(-c2ccc(S(=O)(=O)N3CCSCC3)cc2)co1", "Pks13 thioesterase": 2.365, "Toxoplasma": -8.105, "CoaBC": 0.7426, "MtTrpRS": -6.985, "LiHisRS": 8, "TcHisRS": -2.41}
{"compound": "Cc1ccc(C(=O)N2C[C@@H]3CCCO[C@@H]3[C@H](N3CCOCC3)C2)cn1", "Pks13 thioesterase": -36.4, "CoaBC": -1.48, "MtTrpRS": -2.467, "LiHisRS": 19.3, "TcHisRS": 2.151}
{"compound": "[H][C@@]12CN(C(=O)N(C)C)C[C@]1([H])C(=O)NC21CCN(C(=O)C(C)C)CC1", "Toxoplasma": -4.72}
{"compound": "CC(C(=O)N1CCCC1)S(=O)(=O)Cc1nc(C(C)(C)C)no1", "stereo": "stereo unspecified", "Pks13 thioesterase": -33.21, "Toxoplasma": -4.162, "CoaBC": 7.097, "MtTrpRS": 0.8227, "LiHisRS": 14.47, "TcHisRS": 0.4926}
{"compound": "CN(C)c1cc2c(nn1)CCN(C(=O)C1CCc3ccccc31)C2", "stereo": "stereo unspecified", "Pks13 thioesterase": -70.66, "CoaBC": 5.398, "MtTrpRS": -0.7081, "LiHisRS": 7.865, "TcHisRS": 9.774}
{"compound": "COc1ccc(COCC(O)CNC(=O)c2cccc(OC)c2)cc1", "stereo": "stereo unspecified", "Pks13 thioesterase": -14.15, "Toxoplasma": 8.133, "CoaBC": -0.3817, "MtTrpRS": -3.195, "LiHisRS": 2.609, "TcHisRS": 0.5634}
{"compound": "CC(C)CC(C)NC1CCN(c2cccc(-c3cscn3)c2)CC1", "stereo": "stereo unspecified", "Pks13 thioesterase": -0.8653, "Toxoplasma": -1.736, "CoaBC": -4.218, "MtTrpRS": -1.459, "LiHisRS": 4.255, "TcHisRS": -1.734}
{"compound": "CCCn1c(C)c(CC(=O)N(C)CCOC)c2c1CC(C)(C)CC2=O", "Pks13 thioesterase": -22.11, "Toxoplasma": 16.21, "CoaBC": -2.273, "MtTrpRS": 4.06, "LiHisRS": 19.81, "TcHisRS": 0.8368}
{"compound": "CC(C)(C)c1cnc(CN2CCCS2(=O)=O)o1", "Pks13 thioesterase": -4.017, "Toxoplasma": 8.61, "CoaBC": -0.6593, "MtTrpRS": -1.941, "LiHisRS": 5.714, "TcHisRS": 6.186}